Record: PubChem BioAssay AID493246 (Drosophila RNAi Screening Center, 2011)

Assay: 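Identify essential fly genes by loss of cell viability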 (primary screen)
Cells: Drosophila Kc and S2R+ cells
Knock-down reagent: long dsRNA against Drosophila genes
Measured: 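Cell number per well after knock-down, printed as raw plate values; calls were based on per-plate z-scores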
Reading the numbers: Kc cell number and S2R+ cell number: higher = more cells remaining
Rule for the call: 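Counted as a hit if cell number falls by a z-score of at least 3 within its plate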
In all, the deposit lists about 21,000 reagents; shown is a random part of those with a known target gene and a result. In the full data, 429 (2%) got an active call. 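Values are raw and not normalised between plates; calls rest on per-plate z-scores that were not deposited.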 Unmarked entries are inactive. Reagents against one gene are numbered here. No sequences are given here. The record does not give: the amount of reagent, the time to read-out.

The opening 4 records, to show the layout:
no.	gene knocked down	reagent	Kc cell number, rep 1	Kc cell number, rep 2	S2R+ cell number, rep 1	S2R+ cell number, rep 2
1	MED28 (Mediator complex subunit 28)	1	1.88e6	2.05e6	1.07e6	1.20e6
2	Syngr (Synaptogyrin)	1	1.65e6	1.68e6	1.24e6	1.39e6
3	Pak (p21-activated kinase)	1	1.61e6	1.61e6	1.22e6	1.23e6
4	CG15141	1	1.38e6	1.48e6	1.28e6	1.36e6

Main list, from the start:
no.	gene knocked down	reagent	Kc cell number, rep 1	Kc cell number, rep 2	S2R+ cell number, rep 1	S2R+ cell number, rep 2
1	MED28 (Mediator complex subunit 28)	1	1.88e6	2.05e6	1.07e6	1.20e6
2	Syngr (Synaptogyrin)	1	1.65e6	1.68e6	1.24e6	1.39e6
3	Pak (p21-activated kinase)	1	1.61e6	1.61e6	1.22e6	1.23e6
4	CG15141	1	1.38e6	1.48e6	1.28e6	1.36e6
5	CG15141	2	1.47e6	1.55e6	1.23e6	1.37e6
6	Balat (Beta-alanine transporter)	1	1.42e6	1.49e6	1.20e6	1.32e6
7	BTBD9 (BTB (POZ) domain containing 9)	1	1.57e6	1.49e6	9.95e5	1.11e6
8	DCX-EMAP	1	1.43e6	1.52e6	1.16e6	1.27e6
9	DCX-EMAP	2	1.66e6	1.72e6	1.13e6	1.28e6
10	sc (scute)	1	1.56e6	1.58e6	1.02e6	1.16e6
11	CG4949	1	1.73e6	1.77e6	1.03e6	1.17e6
12	Oatp58Dc (Organic anion transporting polypeptide 58Dc)	1	1.26e6	1.35e6	1.09e6	1.10e6
13	CG17129	1	1.30e6	1.40e6	9.95e5	1.01e6
14	Snx17 (Sorting nexin 17)	1	1.44e6	1.45e6	1.18e6	1.27e6
15	Npc1b (Niemann-Pick type C-1b)	1	1.44e6	1.48e6	1.09e6	1.10e6
16	HP1e (Heterochromatin Protein 1e)	1	1.66e6	1.72e6	1.22e6	1.35e6
17	CG33169	1	1.37e6	1.36e6	1.35e6	1.44e6
18	Surf4 (Surfeit 4)	1	1.24e6	1.35e6	1.15e6	1.25e6
19	SmydA-4 (SET and MYND domain containing, arthropod-specific, member 4)	1	1.45e6	1.45e6	1.02e6	1.16e6
20	CG30002	1	1.46e6	1.51e6	1.00e6	1.07e6
21	Oatp58Da (Organic anion transporting polypeptide 58Da)	1	1.78e6	1.90e6	1.39e6	5.84e5
22	GstD6 (Glutathione S transferase D6)	1	1.66e6	1.70e6	1.35e6	1.45e6
23	Or47a (Odorant receptor 47a)	1	1.54e6	1.58e6	1.22e6	1.30e6
24	DIP-epsilon (Dpr-interacting protein epsilon)	1	1.69e6	1.71e6	1.12e6	1.27e6
25	DIP-epsilon (Dpr-interacting protein epsilon)	2	1.59e6	1.81e6	1.22e6	1.32e6
26	vls (valois)	1	1.40e6	1.52e6	1.33e6	1.36e6
27	Cyp28d2 (Cytochrome P450 28d2)	1	1.66e6	1.54e6	1.25e6	1.35e6
28	Cyp317a1 (Cytochrome P450 317a1)	1	1.55e6	1.48e6	1.22e6	1.34e6
29	Cyp6a20 (Cytochrome P450 6a20)	1	1.46e6	1.55e6	1.13e6	1.19e6
30	Gr23a (Gustatory receptor 23a)	1	1.69e6	1.69e6	1.14e6	1.27e6
31	Mlc2 (Myosin light chain 2)	1	5.74e5		8.48e5	
32	CG4679	1	1.53e6	1.53e6	1.10e6	1.24e6
33	Slc25A46b	1	1.56e6	1.63e6	1.26e6	1.42e6
34	IntS4 (Integrator 4)	1	7.62e5		7.54e5	
35	Arf1 (ADP ribosylation factor 1)	1	1.70e6	1.75e6	1.29e6	1.28e6
36	htk (hat-trick)	1	1.57e6	1.56e6	9.33e5	1.07e6
37	htk (hat-trick)	2	1.61e6	1.71e6	1.05e6	1.25e6
38	Cks30A (Cyclin-dependent kinase subunit 30A)	1	1.39e6	1.36e6	1.18e6	1.24e6
39	CG13807	1	1.42e6	1.31e6	9.74e5	1.21e6
40	aqrs (aquarius)	1	1.49e6	1.51e6	1.05e6	1.10e6
